Laboratory results from patent US20240294641A1 (CHILDREN S MEDICAL CENTER, published 2024).
These are yes or no findings as the source states them, for the method shown. Some binding calls cover weakened binding; strength is not graded here. For some of these results: Where a sequence is shown, tags or fusion partners need not be part of it.

By UniProt entry, the sequences of proteins in these tests, tags left out. Residues count along the entry.
UniProt Q15116, residues 25-170: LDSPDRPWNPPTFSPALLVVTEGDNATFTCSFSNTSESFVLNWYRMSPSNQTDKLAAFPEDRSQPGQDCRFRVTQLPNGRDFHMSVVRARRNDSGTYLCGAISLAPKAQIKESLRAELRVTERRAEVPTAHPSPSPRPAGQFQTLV

How the values were obtained:
[1] = target: PD1-Fc fusion protein (human) (UniProt Q15116); assay: ELISA, plate coated with PD1-Fc fusion (FIG. 5E)
[2] = target: PD1-Fc fusion protein (human) (UniProt Q15116); assay: ELISA, plate coated with PD1-Fc fusion, OD405
[3] = target: T1, PD1 N-terminal loop-GST fusion protein (human); assay: ELISA, plate coated with PD1 N-terminal loop-GST fusion
T1 sequence: LDSPDRPWNP

[4] = target: PD1-Fc fusion protein (human) (UniProt Q15116); assay: ELISA, plate coated with PD1-Fc fusion, AP-anti-human kappa detection
[5] = target: T1, PD1 N-terminal loop-GST fusion protein (human); assay: ELISA, plate coated with PD1 N-terminal loop-GST fusion, AP-anti-human kappa, OD405
[6] = target: PD1-Fc fusion protein (human) (UniProt Q15116); assay: ELISA, plate coated with PD1-Fc fusion (coating taken from paragraph 395; not printed on the sheet), OD405
[7] = target: T1, PD1 N-terminal loop-GST fusion protein (human); assay: ELISA, plate coated with PD1 N-terminal loop-GST fusion (coating taken from paragraph 399 and paragraph 400; not printed on the sheet), OD405

Measured: binding

B1: M1-5 (antibody, human IgG4, V domains shown)
VH: QVQLVESGGDVVQPGGSLRLSCTVSGAVFRDLGMEWVRQAPGKGLEWLAVIWYDGGRKHYADSVKGRFTISRDNSRNMLFLQMNGLRVDDTAMYYCTRSHSTDDYWGQGTLVTVSS
VL: EIVLTQSPATLSVSPGERATLSCRASQSISSDLAWFQQKPGQAPRLIIHGASKRATGIPARFSGSGSGTDFTLTISSLEPEDFAVYYCQQRDSWPLNFGGGTKVEIK
notes: Expressed as human IgG4/kappa; without His tag and Protein A purified for Biacore; also called 319-9-34
not listed: [6] | [7]
binds: all other assays above

B2: M2-1 (antibody, human IgG4, V domains shown)
VH: QVQLVESGGDVVQPGGSLRLSCSASGLVFRDYGMNWVRQAPGKGLEWVGLIWYDGTKKYYSDFVKGRFTISRDNSKNMLYLQMNNLRAEDTAIYYCARFLIGATRRGNAMDYWGQGTSVIVSS
VL: EVVLTQSPATLSLSPGERATLSCRASQSIDSDLAWSQQKTGQPPRLIIYDASNRATGIPARFSGSGSGTDFTLTISSLEPEDFAVYYCQQRSDWPLTFGGGTKVEIR
notes: Expressed as human IgG4/kappa; without His tag and Protein A purified for Biacore; also called 397-27-3
not listed: [6] | [7]
binds: all other assays above

B3: M2-2 (antibody, V domains shown)
VH: QVQLVESGGDVVQPGGSLRLSCSASGLVISDYGMNWVRQAPGKGLEWVGLIWYDGSKKYYSDFVKGRFTISRDNSKNILYLQMNNLRAEDTAMYYCARFLIGATRRGNAMDYWGQGTSVTVSS
VL: EVVLTQSPATLSLSPGERATLSCRASQSIDSDLAWSQQKPGQPPRLIIYDASNRATGIPARFSGSGSGTDFTLTISSLEPEDFAVYYCQQRSDWPLTFGGGTKVEIR
notes: Expressed as human IgG4/kappa in 293F or Expi293 cells; also called 397-27-23
binds: [3] | [4] | [6] | [7]

B4: M2-3 (antibody, V domains shown)
VH: QGHLVESGGDVVLPGGSLRLSCTESGVDLSDFGIHWVRQTPGKGLEWVALIWYDGSKKFYADSVKDRFTISRDNSKNMVYLEMISLRVEDTAMYFCARGIRRGPWFTYWGPGTLVTVST
VL: EIVLTQSPVILSLSPGERATLSCRASQSISSDLAWFQQTPGQAPRLIIYDASNRATGIPARFSGSGSGTDFTLTISSLEPEDFAVYYCQQRSNWPLTFGGGTKVEIK
notes: Expressed as human IgG4/kappa in 293F or Expi293 cells; also called 397-27-25
not listed: [6] | [7]
binds: all other assays above

B5: M1-1 (antibody, V domains shown)
VH: QVQLVESGGDVVQPGGSLRLSCAASGVAFRDYGMHWVRQAPGKGLEWVAVIWYDGSKKYYGDSVKGRFTVSRDNSKNMLYLEMNGLKAEDTAMYYCARNDDYWGQGTLVTVSS
VL: EIVLTQSPATLSLSPGERATLSCRASQSVSNSLSWYQQNPGQSPRLIIYDTSKRATGIPARFSGSGSGTDFTLTINNLETEDFAVYYCHQRSDWPLTFGGGTKVEIK
notes: Expressed as human IgG4/kappa in 293F or Expi293 cells; retains the CDR H3 of 17D8; also called 319-9-8
not listed: [6] | [7]
binds: all other assays above

B6: M1-7 (antibody, V domains shown)
VH: QLQLVESGGDVVQPGGSLRLSCAASGVVFSDFGLEWVRQAPGKGLEWLAVIWYDGSRKHYADSVKGRFTISRDNSKNMLYLQMNSLRVEDTAMYYCARCHSKEDYWGQGTLVTVSS
VL: EIEVTQSPATLSLSPGERATLSCRASQSIDTDLAWFQQRPGQTPRLIIYDASKRATGIPARFSGGGSGTDFTLTISSLEPEDFAVYYCQQRTTWPLTFGGGTKVEIK
notes: Expressed as human IgG4/kappa in 293F or Expi293 cells; also called 319-9-75
binds: [1] | [2] | [4]

B7: M1-4 (antibody, V domains shown)
VH: QVQLVESGGDVVQPGGSLRLSCAVSGVTFGDFGFEWVRQAPGKGLEWVAVIWYDGSRKHYAESVRGRFTISRDNSRNMMYLEMTGLRVEDTAKYYCTRSHSHEDYWGQGTLVTVSS
VL: EIVLTQSPATLSLSPGERATLSCRASQSISNYLAWFQQKSGQAPRLIIHDAFKRAAGIPTRFSGSGSGTDFTLTISSLEPEDFAVYYCQQRDNWPLNFGGGTKVEIK
notes: Expressed as human IgG4/kappa in 293F or Expi293 cells; also called 319-9-27
binds: [3] | [4] | [6] | [7]

B8: M1-6 (antibody, V domains shown)
VH: QVQLVESGGDVVQSGGSLRLSCAVSGVVFSDYGFEWVRQAPGKGLEWVAVIWYDGSRKHYADSVQGRFTISRDNFRNMLYLQMTGLRVEDTAKYYCTRSHSHEDYWGQGTLVTVSS
VL: EIVLTQSPATLSLSPGERATLSCGASQNIDNSLAWFQQKPGQAPRLIIYDASKRATGIPARFSGSGSGTDFTLTISTLEPEDFAVYYCQQRDHWPLNFGGGTKVEVK
notes: Expressed as human IgG4/kappa in 293F or Expi293 cells; also called 319-9-53
binds: [3] | [4] | [6] | [7]

B9: M2-5 (antibody, V domains shown)
VH: QVQLVESGGDVVQPGGSLRLSCAASGVVFSDYGLYWVRQAPGKGLEWVALIWYDGSKKFYADSVKGRFSISRDNSKNMLYLQMNNLRADDSAIYYCSRGIRQGPWFAYWGQGTRVTVSP
VL: EIVLTQSPATLSLSPGERATLSCRASQSISSDLTWFQQKPGQAPRLIIYDASNRATGIPARFSGSGSGTDFTLTISSLEPEDFVVYYCLQRSDWPLTFGGGTKVEIK
notes: Expressed as human IgG4/kappa in 293F or Expi293 cells; also called 397-27-93
binds: [3] | [4] | [6] | [7]

B10: M1-3 (antibody, V domains shown)
VH: QEWLVESGGDVVQPGGSLRLSCATSKVTFNDFGIHWVRQAPGKGLEWVAIIWYDGSRNHYADSVRGRFTLSRDNSKNMVHLHMSSLRTEDTAMYYCARGIHSNDDYWGQGTMVTVSS
VL: EIVLTQSPATLSLSPGERATLSCRTSQSVSSDLAWFQQKPGQAPRLFIFDASKRVNGIPARFSGSGSGTDFTLTISSLEPEDFAVYYCQQRTDWPLTFGGGSRVEIK
notes: Expressed as human IgG4/kappa in 293F or Expi293 cells; also called 319-9-17
binds: [3] | [4] | [6] | [7]

B11: M2-4 (antibody, V domains shown)
VH: QVQLVESGGDVVQPGGSLRLSCAASGVAFRNYGMHWVRQAPGKGLEWVAIIWYDGSNKYYADSVKGRFTISRDNSKNMLYLQMNSLRAEDTAMYYCARLSIGTTHYFDTDDYWGQGTSVTVSS
VL: EIVLTQSPATLSLSPGERATLSCRASQSVSSYLAWYQQKVGQAPRLIIFDASNRATGIPARFSGSGSGTDFTLTITSLDPEDFAVYYCQQRSAWPLTFGGGTKVEIR
notes: Expressed as human IgG4/kappa; 6xHis tag at the C-terminus of the Fc for ELISA
binds: [3] | [4] | [6] | [7]

B12: M1-2 (antibody, V domains shown)
VH: QVQLVESGGDVVQPGGSLRLSCAASGVAFSDYGMEWVRQAPGKGLEWLAVIWYDGSRKHYADSVKGRFTISRDNSKNILYLQMNSLRAEDTAMYYCARCHSKDDYWGQGTLVTVSS
VL: EIVLTQFPATLSLSPGERATLSCRTSQNIDSDLAWFQQKPGQAPRLIIYDASNRATGIPARFSGGGSGTDFTLTITSLEPEDFAVYYCQQRTTWPLTFGGGTKVEIK
notes: Expressed as human IgG4/kappa in 293F or Expi293 cells; also called 319-9-15
binds: [4] | [6]
